From article PMC8864489
These are yes or no findings as the source states them, for the method shown. Some results given as binding are weak or reduced against the parent protein; the word gives no strength. Tags and fused reporters may be left off the sequences shown.

Sequences of proteins named here, by UniProt entry; tags and fusion partners are left off. A change or cut given only in a name is not applied to a line headed by its entry. A line that says so, or that is headed by a name, gives the form on record, which may keep a tag or linker.
Rab27A part of fRab27A-C188 (Q78L, C123S), Cys188 conjugated with A01 (P51159, form named): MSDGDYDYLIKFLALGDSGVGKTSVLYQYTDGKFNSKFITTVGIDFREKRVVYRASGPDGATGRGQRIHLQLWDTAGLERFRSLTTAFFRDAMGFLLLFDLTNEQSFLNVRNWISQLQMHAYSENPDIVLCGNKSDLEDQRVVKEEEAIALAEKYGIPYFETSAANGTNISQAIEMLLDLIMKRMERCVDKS

Biological target: Rab27A part of fRab27A-C188 (Q78L, C123S), Cys188 conjugated with A01 (human) (UniProt P51159)
Test: crystal structure; Slp2a SHD1 (5-32) fused to the N-terminus of Rab27A via a poly glycine-serine linker on one chain; apo or with a covalent fragment (A01, B01) on a cysteine; both purified

binding: binds
Binder: SFLTEEEQEAIMKVLQRDAALKRAEEER [Slp2a SHD1 (residues 5-32) part of fusion-Rab27A]
